The values below come from the supplement of paper PMC8728848.

The list shows a part of the results.

Common to all, as to experiment: glycan array binding signal (z-score within array); higher = stronger binding
Holding throughout (conditions): glycan notation: IUPAC condensed, linker removed

The target of one test is Glc(b1-4)Glc. In short, it runs like this:
(§1)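 The binding signal is a Z-score computed within each array and averaged over linkers. Arrays of the same protein sequence at different concentrations or buffers were also averaged together. Data originate from 3228 arrays in the Consortium for Functional Glycomics database, kept only where the protein sequence was available.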

The target in a further test is Glc(b1-6)Glc. In short, it runs like this: as §1
The target in a further test is GlcA(b1-3)Gal. In short, it runs like this:
as §1

Another test has as its target GlcA(b1-3)GlcNAc. The procedure, abridged:
as §1

For a further test, the target named is GlcA(b1-6)Gal. The procedure, abridged: as §1
Test [1] deals with GlcA3S(b1-3)Gal(b1-4)GlcNAc(b1-2)Man. In short, it runs like this:
as §1

Test [2] deals with GlcA3S(b1-3)Gal(b1-4)GlcNAc(b1-3)Gal(b1-4)Glc. In short, it runs like this:
as §1

Test [3] concerns the target GlcNAc(a1-3)Gal(b1-4)GlcNAc. The procedure, abridged:
as §1

Test [4] has as its target GlcNAc(a1-4)Gal(b1-3)GlcNAc. The procedure, abridged:
as §1

For test [5], the target named is GlcNAc(a1-4)Gal(b1-4)GalNAc. The procedure, abridged: as §1
Test [6] addresses GlcNAc(a1-4)Gal(b1-4)GlcNAc. The procedure, abridged: as §1
Test [7] addresses GlcNAc(a1-4)Gal(b1-4)GlcNAc(b1-3)Gal(b1-4)Glc. The procedure, abridged: as §1
The target in test [8] is GlcNAc(a1-4)Gal(b1-4)GlcNAc(b1-3)Gal(b1-4)GlcNAc. The procedure, abridged:
as §1

The target of test [9] is GlcNAc(a1-4)Gal(b1-4)GlcNAc(b1-3)Gal(b1-4)GlcNAc(b1-3)Gal(b1-4)GlcNAc. The procedure, abridged:
as §1

For test [10], the target named is GlcNAc(a1-4)Gal(b1-4)GlcNAc(b1-3)Gal(b1-4)[Fuc(a1-3)]GlcNAc(b1-3)Gal(b1-4)[Fuc(a1-3)]GlcNAc. In short, it runs like this: as §1
In test [11] the target is GlcNAc(a1-6)Gal(b1-4)GlcNAc. In short, it runs like this: as §1
In test [12] the target is GlcNAc(b1-2)Gal(b1-3)GalNAc. In short, it runs like this: as §1
Test [13] has as its target GlcNAc(b1-2)Man(a1-3)[GlcNAc(b1-2)Man(a1-6)]Man(b1-4)GlcNAc(b1-4)GlcNAc. In short, it runs like this:
as §1

Test [14] addresses GlcNAc(b1-2)Man(a1-3)[GlcNAc(b1-2)Man(a1-6)]Man(b1-4)GlcNAc(b1-4)[Fuc(a1-6)]GlcNAc. In short, it runs like this:
as §1

The target in test [15] is GlcNAc(b1-2)Man(a1-3)[GlcNAc(b1-4)][GlcNAc(b1-2)Man(a1-6)]Man(b1-4)GlcNAc(b1-4)GlcNAc. In short, it runs like this: as §1
Test [16] has as its target GlcNAc(b1-2)Man(a1-3)[GlcNAc(b1-4)][GlcNAc(b1-2)Man(a1-6)]Man(b1-4)GlcNAc(b1-4)[Fuc(a1-6)]GlcNAc. The procedure, abridged:
as §1

Test [17] deals with GlcNAc(b1-2)[GlcNAc(b1-4)]Man(a1-3)[GlcNAc(b1-2)Man(a1-6)]Man(b1-4)GlcNAc(b1-4)GlcNAc. In short, it runs like this:
as §1

B1: XTP3-B-MRH1 (Homo sapiens), Q96DZ1 (protein)
chain: LLEPLFKQSSCSYRIESYWTYEVCHGKHIRQYHEEKETGQKINIHEYYLGNMLAKNLLFEKEREAEEKEKSNEIPTKNIEGQMTPYYPVGMGNGTPCSLKQNRPRSSTVMYICHPESKHEILSVAEVTTCEYEVVILTPLLCSHPKYRFRA
In the case of B1, the “glycan array binding signal (z-score)” value in the test with Glc(b1-4)Glc was -0.349; with Glc(b1-6)Glc, -1.1; with GlcA(b1-3)Gal, 0.324; with GlcA(b1-3)GlcNAc, -0.414; in the test with GlcA(b1-6)Gal, 0.841; in test [1], -0.014. The “glycan array binding signal (z-score)” value is -0.47 in test [2]; 0.433 in test [3]; -0.631 in [4]; -0.588 in test [5]; -0.401 in [6]; -0.158 in [7]. Besides, the “glycan array binding signal (z-score)” value in test [8] was -0.549; in test [9], 0.916; in test [10], 1.52; in test [11] it was -0.257; in test [12], -1.24; in [13] it was 0.137. Further, the “glycan array binding signal (z-score)” value in test [14] is -0.552; in test [15], -0.313; in test [16] it was 0.083; in test [17] it was 0.857.
